The source of these data is article PMC11188183.

Chains of the proteins cited; added tags and fusions are not shown.
UniProt P68104: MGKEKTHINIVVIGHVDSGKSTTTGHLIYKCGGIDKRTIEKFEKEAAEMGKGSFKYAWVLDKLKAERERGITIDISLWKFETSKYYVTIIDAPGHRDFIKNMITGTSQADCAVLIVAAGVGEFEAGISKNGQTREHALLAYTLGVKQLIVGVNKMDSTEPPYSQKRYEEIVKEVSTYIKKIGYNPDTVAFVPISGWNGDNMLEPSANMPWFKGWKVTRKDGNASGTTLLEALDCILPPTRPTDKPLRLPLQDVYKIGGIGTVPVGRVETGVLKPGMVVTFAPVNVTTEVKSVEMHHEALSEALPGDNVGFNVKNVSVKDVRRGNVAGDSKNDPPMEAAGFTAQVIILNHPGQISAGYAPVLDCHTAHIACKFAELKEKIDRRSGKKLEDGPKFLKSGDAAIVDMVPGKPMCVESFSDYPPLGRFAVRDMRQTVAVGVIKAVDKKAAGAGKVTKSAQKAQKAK
UniProt Q5VTE0: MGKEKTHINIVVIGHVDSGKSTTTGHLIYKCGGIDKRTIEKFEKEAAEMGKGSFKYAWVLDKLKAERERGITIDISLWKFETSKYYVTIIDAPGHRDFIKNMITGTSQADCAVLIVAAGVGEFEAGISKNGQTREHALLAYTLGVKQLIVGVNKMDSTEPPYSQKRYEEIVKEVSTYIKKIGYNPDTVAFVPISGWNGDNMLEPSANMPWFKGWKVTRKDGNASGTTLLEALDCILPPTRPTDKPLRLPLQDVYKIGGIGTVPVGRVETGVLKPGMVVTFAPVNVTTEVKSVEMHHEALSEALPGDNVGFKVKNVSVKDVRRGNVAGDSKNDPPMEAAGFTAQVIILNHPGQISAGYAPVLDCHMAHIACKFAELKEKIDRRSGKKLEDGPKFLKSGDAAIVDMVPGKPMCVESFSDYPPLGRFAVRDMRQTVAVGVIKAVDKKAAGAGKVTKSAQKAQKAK
UniProt Q6NVV1: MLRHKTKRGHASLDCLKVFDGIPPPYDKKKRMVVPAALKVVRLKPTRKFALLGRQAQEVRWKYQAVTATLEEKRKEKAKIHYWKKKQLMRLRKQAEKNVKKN
UniProt P0DPH7: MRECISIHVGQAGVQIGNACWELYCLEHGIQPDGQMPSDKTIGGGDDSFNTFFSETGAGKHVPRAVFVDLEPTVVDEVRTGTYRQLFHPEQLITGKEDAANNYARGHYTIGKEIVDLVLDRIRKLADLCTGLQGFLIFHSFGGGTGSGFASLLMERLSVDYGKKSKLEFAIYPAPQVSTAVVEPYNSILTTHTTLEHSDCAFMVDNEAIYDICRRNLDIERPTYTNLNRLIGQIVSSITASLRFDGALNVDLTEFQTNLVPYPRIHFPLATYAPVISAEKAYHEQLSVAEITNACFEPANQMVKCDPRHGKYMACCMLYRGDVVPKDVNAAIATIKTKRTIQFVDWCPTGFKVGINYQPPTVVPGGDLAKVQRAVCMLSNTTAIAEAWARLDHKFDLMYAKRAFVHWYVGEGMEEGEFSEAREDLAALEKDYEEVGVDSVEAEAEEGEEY
UniProt P60660: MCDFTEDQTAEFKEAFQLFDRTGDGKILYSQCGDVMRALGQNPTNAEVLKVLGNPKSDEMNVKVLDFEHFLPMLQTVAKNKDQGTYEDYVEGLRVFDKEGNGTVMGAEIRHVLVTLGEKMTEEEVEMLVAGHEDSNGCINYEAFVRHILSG
UniProt O43795: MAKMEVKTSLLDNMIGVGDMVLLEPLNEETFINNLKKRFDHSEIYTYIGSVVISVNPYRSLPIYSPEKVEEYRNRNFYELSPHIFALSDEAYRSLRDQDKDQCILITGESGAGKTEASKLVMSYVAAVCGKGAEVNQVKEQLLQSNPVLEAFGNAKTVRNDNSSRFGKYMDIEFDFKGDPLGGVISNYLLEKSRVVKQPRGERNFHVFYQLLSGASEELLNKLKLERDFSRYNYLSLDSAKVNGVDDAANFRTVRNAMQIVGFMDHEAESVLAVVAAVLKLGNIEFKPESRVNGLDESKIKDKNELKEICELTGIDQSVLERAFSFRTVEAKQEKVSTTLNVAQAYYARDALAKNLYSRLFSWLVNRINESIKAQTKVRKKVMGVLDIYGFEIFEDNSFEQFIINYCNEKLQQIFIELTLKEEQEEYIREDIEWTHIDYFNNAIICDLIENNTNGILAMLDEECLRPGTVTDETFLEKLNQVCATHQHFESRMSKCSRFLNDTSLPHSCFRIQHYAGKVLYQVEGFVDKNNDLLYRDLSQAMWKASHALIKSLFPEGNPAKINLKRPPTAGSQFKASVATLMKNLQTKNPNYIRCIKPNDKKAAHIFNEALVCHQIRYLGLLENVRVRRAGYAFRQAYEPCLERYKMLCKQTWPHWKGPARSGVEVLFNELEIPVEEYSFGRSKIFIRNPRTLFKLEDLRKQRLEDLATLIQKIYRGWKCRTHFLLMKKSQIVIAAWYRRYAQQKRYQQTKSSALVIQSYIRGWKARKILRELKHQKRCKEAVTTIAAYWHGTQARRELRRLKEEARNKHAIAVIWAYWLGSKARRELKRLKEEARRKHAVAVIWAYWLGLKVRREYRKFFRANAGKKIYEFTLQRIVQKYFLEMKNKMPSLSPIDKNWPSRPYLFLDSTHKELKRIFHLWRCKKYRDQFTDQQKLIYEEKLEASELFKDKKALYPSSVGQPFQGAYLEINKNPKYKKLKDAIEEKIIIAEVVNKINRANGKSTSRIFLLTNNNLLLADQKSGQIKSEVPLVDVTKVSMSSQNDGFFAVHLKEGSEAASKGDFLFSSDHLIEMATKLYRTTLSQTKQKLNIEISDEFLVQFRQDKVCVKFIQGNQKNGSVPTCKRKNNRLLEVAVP
UniProt Q02539: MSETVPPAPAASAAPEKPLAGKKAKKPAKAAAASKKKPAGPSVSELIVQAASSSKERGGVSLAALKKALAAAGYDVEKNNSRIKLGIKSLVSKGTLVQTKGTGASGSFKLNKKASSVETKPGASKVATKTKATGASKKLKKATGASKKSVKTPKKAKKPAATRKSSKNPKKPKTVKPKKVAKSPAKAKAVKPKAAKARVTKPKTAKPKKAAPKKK
UniProt Q04695: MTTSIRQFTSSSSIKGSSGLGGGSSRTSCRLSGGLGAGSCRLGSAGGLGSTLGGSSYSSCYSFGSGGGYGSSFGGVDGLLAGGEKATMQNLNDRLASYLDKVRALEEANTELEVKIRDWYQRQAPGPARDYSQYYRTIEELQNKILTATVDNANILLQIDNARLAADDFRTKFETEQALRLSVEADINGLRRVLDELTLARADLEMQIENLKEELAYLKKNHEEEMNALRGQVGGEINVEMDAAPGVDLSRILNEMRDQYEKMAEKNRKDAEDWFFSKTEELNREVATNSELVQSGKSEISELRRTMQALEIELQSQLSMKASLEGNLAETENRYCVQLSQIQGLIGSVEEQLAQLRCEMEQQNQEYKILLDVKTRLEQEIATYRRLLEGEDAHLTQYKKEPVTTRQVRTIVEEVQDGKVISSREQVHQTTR
UniProt Q9Y2J0: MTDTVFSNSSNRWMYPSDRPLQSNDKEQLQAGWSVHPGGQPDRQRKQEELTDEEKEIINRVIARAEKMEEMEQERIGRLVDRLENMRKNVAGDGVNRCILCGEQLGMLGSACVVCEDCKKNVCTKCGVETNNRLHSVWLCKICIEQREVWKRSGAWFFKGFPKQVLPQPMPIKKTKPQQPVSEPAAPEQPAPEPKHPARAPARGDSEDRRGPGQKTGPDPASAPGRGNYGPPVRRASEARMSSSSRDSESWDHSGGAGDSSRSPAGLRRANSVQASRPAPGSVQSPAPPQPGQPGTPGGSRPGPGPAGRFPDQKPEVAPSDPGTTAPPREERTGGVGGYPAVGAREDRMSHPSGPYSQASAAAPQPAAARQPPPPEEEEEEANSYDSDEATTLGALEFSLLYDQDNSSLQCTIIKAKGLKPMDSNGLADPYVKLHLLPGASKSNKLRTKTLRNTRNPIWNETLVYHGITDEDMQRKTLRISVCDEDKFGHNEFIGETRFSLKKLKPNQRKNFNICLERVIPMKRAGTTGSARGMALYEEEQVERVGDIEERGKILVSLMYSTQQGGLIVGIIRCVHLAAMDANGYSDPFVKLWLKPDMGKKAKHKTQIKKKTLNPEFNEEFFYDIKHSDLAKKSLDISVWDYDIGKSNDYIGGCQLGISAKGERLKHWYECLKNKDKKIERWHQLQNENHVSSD
UniProt P08727: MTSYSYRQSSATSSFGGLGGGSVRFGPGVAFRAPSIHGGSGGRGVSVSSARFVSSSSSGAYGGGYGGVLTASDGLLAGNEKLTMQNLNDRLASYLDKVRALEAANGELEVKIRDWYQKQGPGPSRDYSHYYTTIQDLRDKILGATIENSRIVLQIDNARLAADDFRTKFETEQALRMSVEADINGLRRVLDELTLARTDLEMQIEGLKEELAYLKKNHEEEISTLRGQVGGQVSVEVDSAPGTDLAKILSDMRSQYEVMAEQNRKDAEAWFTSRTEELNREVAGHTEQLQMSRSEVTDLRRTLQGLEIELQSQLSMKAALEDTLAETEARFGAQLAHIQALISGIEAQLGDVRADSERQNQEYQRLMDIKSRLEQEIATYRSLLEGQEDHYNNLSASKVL
UniProt Q16630: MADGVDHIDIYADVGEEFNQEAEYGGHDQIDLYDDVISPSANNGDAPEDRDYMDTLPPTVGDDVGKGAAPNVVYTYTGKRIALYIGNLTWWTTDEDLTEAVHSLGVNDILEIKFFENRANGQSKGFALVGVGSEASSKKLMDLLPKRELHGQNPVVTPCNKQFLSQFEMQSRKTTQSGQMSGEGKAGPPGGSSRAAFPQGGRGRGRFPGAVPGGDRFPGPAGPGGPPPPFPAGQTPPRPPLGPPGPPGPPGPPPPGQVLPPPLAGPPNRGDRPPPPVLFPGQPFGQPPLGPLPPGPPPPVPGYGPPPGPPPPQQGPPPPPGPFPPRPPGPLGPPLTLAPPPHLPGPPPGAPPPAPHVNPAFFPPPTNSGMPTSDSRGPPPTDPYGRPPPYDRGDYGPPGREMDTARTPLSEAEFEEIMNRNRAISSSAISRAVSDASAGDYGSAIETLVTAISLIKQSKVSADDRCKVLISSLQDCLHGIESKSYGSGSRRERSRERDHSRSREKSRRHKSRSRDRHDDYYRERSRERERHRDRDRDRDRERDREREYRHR
UniProt Q05639: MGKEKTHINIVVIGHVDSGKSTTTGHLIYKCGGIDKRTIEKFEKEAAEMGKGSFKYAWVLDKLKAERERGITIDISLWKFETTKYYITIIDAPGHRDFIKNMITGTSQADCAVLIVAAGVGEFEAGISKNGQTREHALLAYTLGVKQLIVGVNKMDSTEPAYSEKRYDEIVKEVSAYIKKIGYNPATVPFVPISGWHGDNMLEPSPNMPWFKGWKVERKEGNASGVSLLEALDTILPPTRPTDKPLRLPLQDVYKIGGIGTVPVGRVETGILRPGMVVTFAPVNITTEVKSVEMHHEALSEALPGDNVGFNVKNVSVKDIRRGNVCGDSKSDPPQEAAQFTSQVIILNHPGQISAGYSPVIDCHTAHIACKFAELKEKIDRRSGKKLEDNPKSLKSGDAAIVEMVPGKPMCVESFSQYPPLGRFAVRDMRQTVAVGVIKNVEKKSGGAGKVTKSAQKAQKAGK
UniProt Q9BQE3: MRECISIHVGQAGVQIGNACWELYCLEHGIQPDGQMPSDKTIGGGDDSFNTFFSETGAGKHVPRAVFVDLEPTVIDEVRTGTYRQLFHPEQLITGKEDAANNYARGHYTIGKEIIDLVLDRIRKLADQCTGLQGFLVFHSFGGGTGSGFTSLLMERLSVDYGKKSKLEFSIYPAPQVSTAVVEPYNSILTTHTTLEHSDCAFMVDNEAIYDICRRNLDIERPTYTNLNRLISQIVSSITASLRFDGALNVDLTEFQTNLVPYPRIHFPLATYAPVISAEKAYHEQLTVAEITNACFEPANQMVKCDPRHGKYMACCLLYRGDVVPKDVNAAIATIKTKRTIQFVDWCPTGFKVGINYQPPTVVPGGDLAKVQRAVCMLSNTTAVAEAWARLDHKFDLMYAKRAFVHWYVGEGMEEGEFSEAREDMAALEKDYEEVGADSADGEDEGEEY
UniProt P26599: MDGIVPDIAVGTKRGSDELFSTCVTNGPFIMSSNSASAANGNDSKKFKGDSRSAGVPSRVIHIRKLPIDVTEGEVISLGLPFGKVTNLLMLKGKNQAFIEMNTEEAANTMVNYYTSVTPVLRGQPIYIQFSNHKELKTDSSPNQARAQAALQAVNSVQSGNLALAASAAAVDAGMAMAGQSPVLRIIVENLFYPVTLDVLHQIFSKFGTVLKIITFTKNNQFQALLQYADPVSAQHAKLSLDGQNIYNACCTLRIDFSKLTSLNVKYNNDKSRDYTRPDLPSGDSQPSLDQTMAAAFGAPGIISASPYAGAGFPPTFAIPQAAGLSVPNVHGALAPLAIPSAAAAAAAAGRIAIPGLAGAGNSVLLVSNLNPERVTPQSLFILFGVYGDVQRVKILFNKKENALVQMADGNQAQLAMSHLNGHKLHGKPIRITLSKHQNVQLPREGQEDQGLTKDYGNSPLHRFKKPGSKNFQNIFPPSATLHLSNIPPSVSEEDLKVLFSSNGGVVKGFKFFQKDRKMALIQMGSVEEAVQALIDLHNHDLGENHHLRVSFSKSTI

These are yes or no findings as the source states them, for the method shown. In cells and extracts the contact can be indirect. A yes stands for co-enrichment or nearness to the bait. Other partners may have been found.

For assay [1], the target named is T1, kinesin family member C1 (KIFC1) (human) (UniProt Q9BW19).
T1 sequence: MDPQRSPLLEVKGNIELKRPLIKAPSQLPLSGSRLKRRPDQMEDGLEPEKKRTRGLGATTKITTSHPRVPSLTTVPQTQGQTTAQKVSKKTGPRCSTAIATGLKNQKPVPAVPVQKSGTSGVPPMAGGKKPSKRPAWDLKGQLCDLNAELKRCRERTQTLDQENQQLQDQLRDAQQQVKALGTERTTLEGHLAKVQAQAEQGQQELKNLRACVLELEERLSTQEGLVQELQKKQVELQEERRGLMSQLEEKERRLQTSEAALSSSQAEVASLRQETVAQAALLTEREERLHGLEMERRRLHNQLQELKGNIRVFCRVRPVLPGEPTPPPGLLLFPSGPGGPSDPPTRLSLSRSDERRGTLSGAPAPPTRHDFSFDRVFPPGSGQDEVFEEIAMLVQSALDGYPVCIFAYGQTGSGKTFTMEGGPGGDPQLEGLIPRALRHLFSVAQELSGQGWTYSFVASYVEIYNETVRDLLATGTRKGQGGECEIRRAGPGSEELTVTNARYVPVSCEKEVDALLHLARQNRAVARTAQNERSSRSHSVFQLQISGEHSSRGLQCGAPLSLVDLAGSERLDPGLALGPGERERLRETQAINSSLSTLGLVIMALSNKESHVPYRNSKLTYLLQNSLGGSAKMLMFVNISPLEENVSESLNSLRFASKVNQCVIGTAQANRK
The experiment in a line: affinity purification with mass spectrometry; anti-KIFC1 antibody (Abcam ab172620) crosslinked to magnetic beads; nuclear lysate of MDA-MB-468 (AA) cells; LC-MS/MS of the eluate.

For assay [2], the target named is T1, kinesin family member C1 (KIFC1) (human). The assay can be described thus: affinity purification with mass spectrometry; anti-KIFC1 antibody (Abcam ab172620) crosslinked to magnetic beads; nuclear lysate of HCC1806 (AA) cells; LC-MS/MS of the eluate.
Assay [3] has the same target. The assay can be described thus: affinity purification with mass spectrometry; anti-KIFC1 antibody (Abcam ab172620) crosslinked to magnetic beads; nuclear lysate of BT-549 (EA) cells; LC-MS/MS of the eluate.
The target is the same in assay [4]. The assay can be described thus: affinity purification with mass spectrometry; anti-KIFC1 antibody (Abcam ab172620) crosslinked to magnetic beads; nuclear lysate of MDA-MB-231 (EA) cells; LC-MS/MS of the eluate.

FLNA_HUMAN (from UniProt P21333 1-2647): the binding result in assay [1] and in assay [2] was “binds” in each case.
In the case of TBA3E_HUMAN (from UniProt Q6PEY2 1-450), the binding entry in assay [1] and in assay [2] was “binds” each time.
For the molecule EF1A1_HUMAN (from UniProt P68104 1-462), the binding entry in assay [3] is on record as “binds”.
Regarding EF1A3_HUMAN (from UniProt Q5VTE0 1-462), the binding entry in assay [3] is on record as “binds”.
With R13P3_HUMAN (from UniProt Q6NVV1 1-102), the binding entry in assay [3] is reported as “binds”.
Regarding TBA3C_HUMAN (from UniProt P0DPH7 1-450), the binding entry in assay [1] and in assay [2] was “binds” in each case.
On to MYL6_HUMAN (from UniProt P60660 1-151), for which, in assay [4], the binding entry is recorded as “binds”.
Still for that read-out and setting: in the case of H2AZ_HUMAN (from UniProt P0C0S5 1-128) it was “binds”.
Take “MYH10_HUMAN (from UniProt P35580 1-1976)”: the binding entry in assay [1] and in assay [2] was “binds” throughout.
Take HNRPK_HUMAN (from UniProt P61978 1-463): the binding entry in assay [1] and in assay [2] was “binds” throughout.
On to “MYO1B_HUMAN (from UniProt O43795 1-1136)”, for which the binding result in assay [1] and in assay [2] was “binds” throughout.
With H11_HUMAN (from UniProt Q02539 1-215), the binding entry in assay [3] was “binds”.
On to DREB_HUMAN (from UniProt Q16643 1-649), for which the binding result in assay [1] and in assay [2] was “binds” in each case.
As to K1C17_HUMAN (from UniProt Q04695 1-432), the binding entry in assay [3] and in assay [2] was “binds” throughout.
Consider RP3A_HUMAN (from UniProt Q9Y2J0 1-694), for which the binding entry in assay [3] is given as “binds”.
On to “MYH14_HUMAN (from UniProt Q7Z406 1-1995)”, for which the binding result in assay [1] and in assay [2] was “binds” in each case.
K1C19_HUMAN (from UniProt P08727 1-400): the binding entry in assay [3] is given as “binds”.
In the case of CPSF6_HUMAN (from UniProt Q16630 1-551), the binding entry in assay [1] and in assay [2] was “binds” throughout.
Regarding EF1A2_HUMAN (from UniProt Q05639 1-463), in assay [3], the binding result is on record as “binds”.
TBA1C_HUMAN (from UniProt Q9BQE3 1-449): the binding entry in assay [1] and in assay [2] was “binds” in each case.
Consider PTBP1_HUMAN (from UniProt P26599 1-557), for which the binding result in assay [1] and in assay [2] was “binds” each time.
For the molecule MYO6_HUMAN (from UniProt Q9UM54 1-1294), the binding entry in assay [1] and in assay [2] was “binds” throughout.

B1: AROS_HUMAN (protein, UniProt Q86WX3 1-136)
chain: MSAALLRRGLELLAASEAPRDPPGQAKPRGAPVKRPRKTKAIQAQKLRNSAKGKVPKSALDEYRKRECRDHLRVNLKFLTRTRSTVAESVSQQILRQNRGRKACDRPVAKTKKKKAEGTVFTEEDFQKFQQEYFGS
For B1, in assay [3], the binding entry was “binds”.

B2: LMBD2_HUMAN (protein, UniProt Q68DH5 1-695)
chain: MSGAALGLEIVFVFFLALFLLHRYGDFKKQHRLVIIGTLLAWYLCFLIVFILPLDVSTTIYNRCKHAAANSSPPENSNITGLYATANPVPSQHPCFKPWSYIPDGIMPIFWRVVYWTSQFLTWILLPFMQSYARSGGFSITGKIKTALIENAIYYGTYLLIFGAFLIYVAVNPHLHLEWNQLQTIGIAAANTWGLFLLVLLLGYGLVEIPRSYWNGAKRGYLLMKTYFKAAKLMTEKADAEENLEDAMEEVRKVNESIKYNHPLRKCVDTILKKCPTEYQEKMGRNMDDYEDFDEKHSIYPSEKSLVKLHKQVIYSVQRHRRTQVQWQILLEQAFYLEDVAKNETSATHQFVHTFQSPEPENRFIQYFYNPTFEWYWECLLRPWFYKILAVVLSIFSVIVVWSECTFFSTTPVLSLFAVFIQLAEKTYNYIYIEIACFLSIFFLSICVYSTVFRIRVFNYYYLASHHQTDAYSLLFSGMLFCRLTPPLCLNFLGLTHMDSSISHKNTQPTAYTSIMGSMKVLSFIADGFYIYYPMLVVILCIATYFSLGTRCLNLLGFQQFMGDDDMTSDLVNEGKELIRKEKRKRQRQEEGENRRREWKERYGHNREDSTRNRNIHTDPKESNFSDVNTNRSAFKYTRANNRTERDRIELLQDAEPLDFNAETFTDDPLESESGRYQPGGRYLSMSRSDIFNDV
On to B2, for which the binding entry in assay [3] is listed as “binds”.

B3: MYO1D_HUMAN (protein, UniProt O94832 1-1006)
chain: MAEQESLEFGKADFVLMDTVSMPEFMANLRLRFEKGRIYTFIGEVVVSVNPYKLLNIYGRDTIEQYKGRELYERPPHLFAIADAAYKAMKRRSKDTCIVISGESGAGKTEASKYIMQYIAAITNPSQRAEVERVKNMLLKSNCVLEAFGNAKTNRNDNSSRFGKYMDINFDFKGDPIGGHINNYLLEKSRVIVQQPGERSFHSFYQLLQGGSEQMLRSLHLQKSLSSYNYIHVGAQLKSSINDAAEFRVVADAMKVIGFKPEEIQTVYKILAAILHLGNLKFVVDGDTPLIENGKVVSIIAELLSTKTDMVEKALLYRTVATGRDIIDKQHTEQEASYGRDAFAKAIYERLFCWIVTRINDIIEVKNYDTTIHGKNTVIGVLDIYGFEIFDNNSFEQFCINYCNEKLQQLFIQLVLKQEQEEYQREGIPWKHIDYFNNQIIVDLVEQQHKGIIAILDDACMNVGKVTDEMFLEALNSKLGKHAHFSSRKLCASDKILEFDRDFRIRHYAGDVVYSVIGFIDKNKDTLFQDFKRLMYNSSNPVLKNMWPEGKLSITEVTKRPLTAATLFKNSMIALVDNLASKEPYYVRCIKPNDKKSPQIFDDERCRHQVEYLGLLENVRVRRAGFAFRQTYEKFLHRYKMISEFTWPNHDLPSDKEAVKKLIERCGFQDDVAYGKTKIFIRTPRTLFTLEELRAQMLIRIVLFLQKVWRGTLARMRYKRTKAALTIIRYYRRYKVKSYIHEVARRFHGVKTMRDYGKHVKWPSPPKVLRRFEEALQTIFNRWRASQLIKSIPASDLPQVRAKVAAVEMLKGQRADLGLQRAWEGNYLASKPDTPQTSGTFVPVANELKRKDKYMNVLFSCHVRKVNRFSKVEDRAIFVTDRHLYKMDPTKQYKVMKTIPLYNLTGLSVSNGKDQLVVFHTKDNKDLIVCLFSKQPTHESRIGELVGVLVNHFKSEKRHLQVNVTNPVQCSLHGKKCTVSVETRLNQPQPDFTKNRSGFILSVPGN
Take B3: the binding entry in assay [1] and in assay [2] was “binds” each time.

B4: H1T_HUMAN (protein, UniProt P22492 1-207)
chain: MSETVPAASASAGVAAMEKLPTKKRGRKPAGLISASRKVPNLSVSKLITEALSVSQERVGMSLVALKKALAAAGYDVEKNNSRIKLSLKSLVNKGILVQTRGTGASGSFKLSKKVIPKSTRSKAKKSVSAKTKKLVLSRDSKSPKTAKTNKRAKKPRATTPKTVRSGRKAKGAKGKQQQKSPVKARASKSKLTQHHEVNVRKATSKK
For the molecule B4, in assay [3], the binding result was “binds”.

B5: ASB2_HUMAN (protein, UniProt Q96Q27 1-635)
chain: MATQISTRGSQCTIGQEEYSLYSSLSEDELVQMAIEQSLADKTRGPTTAEATASACTNRQPAHFYPWTRSTAPPESSPARAPMGLFQGVMQKYSSSLFKTSQLAPADPLIKAIKDGDEEALKTMIKEGKNLAEPNKEGWLPLHEAAYYGQVGCLKVLQRAYPGTIDQRTLQEETAVYLATCRGHLDCLLSLLQAGAEPDISNKSRETPLYKACERKNAEAVKILVQHNADTNHRCNRGWTALHESVSRNDLEVMQILVSGGAKVESKNAYGITPLFVAAQSGQLEALRFLAKYGADINTQASDNASALYEACKNEHEEVVEFLLSQGADANKTNKDGLLPLHIASKKGNYRIVQMLLPVTSRTRIRRSGVSPLHLAAERNHDEVLEALLSARFDVNTPLAPERARLYEDRRSSALYFAVVNNNVYATELLLQHGADPNRDVISPLLVAIRHGCLRTMQLLLDHGANIDAYIATHPTAFPATIMFAMKCLSLLKFLMDLGCDGEPCFSCLYGNGPHPPAPQPSSRFNDAPAADKEPSVVQFCEFVSAPEVSRWAGPIIDVLLDYVGNVQLCSRLKEHIDSFEDWAVIKEKAEPPRPLAHLCRLRVRKAIGKYRIKLLDTLPLPGRLIRYLKYENTQ
For the molecule B5, the binding result in assay [3] is reported as “binds”.

B6: NR2C1_HUMAN (protein, UniProt P13056 1-603)
chain: MATIEEIAHQIIEQQMGEIVTEQQTGQKIQIVTALDHNTQGKQFILTNHDGSTPSKVILARQDSTPGKVFLTTPDAAGVNQLFFTTPDLSAQHLQLLTDNSPDQGPNKVFDLCVVCGDKASGRHYGAVTCEGCKGFFKRSIRKNLVYSCRGSKDCIINKHHRNRCQYCRLQRCIAFGMKQDSVQCERKPIEVSREKSSNCAASTEKIYIRKDLRSPLTATPTFVTDSESTRSTGLLDSGMFMNIHPSGVKTESAVLMTSDKAESCQGDLSTLANVVTSLANLGKTKDLSQNSNEMSMIESLSNDDTSLCEFQEMQTNGDVSRAFDTLAKALNPGESTACQSSVAGMEGSVHLITGDSSINYTEKEGPLLSDSHVAFRLTMPSPMPEYLNVHYIGESASRLLFLSMHWALSIPSFQALGQENSISLVKAYWNELFTLGLAQCWQVMNVATILATFVNCLHNSLQQDKMSTERRKLLMEHIFKLQEFCNSMVKLCIDGYEYAYLKAIVLFSPDHPSLENMEQIEKFQEKAYVEFQDYITKTYPDDTYRLSRLLLRLPALRLMNATITEELFFKGLIGNIRIDSVIPHILKMEPADYNSQIIGHSI
B6: in assay [3], the binding entry is reported as “binds”.
